The list shows a part of the results.

Protein sequences, listed by entry. Tags and fused reporters are not part of them.
UniProt Q0JBA9, entry or part of it: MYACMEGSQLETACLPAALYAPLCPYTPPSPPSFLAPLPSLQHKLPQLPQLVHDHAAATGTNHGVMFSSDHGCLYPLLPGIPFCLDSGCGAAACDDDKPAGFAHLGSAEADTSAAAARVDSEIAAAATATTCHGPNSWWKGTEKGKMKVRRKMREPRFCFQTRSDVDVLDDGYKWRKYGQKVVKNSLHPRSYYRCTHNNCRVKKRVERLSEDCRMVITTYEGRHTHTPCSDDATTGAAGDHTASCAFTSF

For this assay, the target named is OsWRKY34 (Oryza sativa, UniProt Q0JBA9 1-250). The assay is described as follows: protein-binding microarray (RPBM); PBS, 2% BSA, 51.3 ng/ul salmon testes DNA, 50 uM zinc acetate, 200 nM TF, 25 C, 1 h; high values mean tight binding. The following applies: protein: recombinant; tags: N-terminal polyhistidine and DsRed monomer fusion (pET32a); label: CyDye5-dUTP incorporated in the synthesized complementary strand; 3' TTTTT single-stranded linker to array surface; dsDNA, one strand shown. Summed up: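 Polyhistidine-tagged DsRed fusions of transcription factors, joined at the N-terminus, were expressed in E. coli BL21-CodonPlus and isolated on Ni–NTA. They were incubated at 200 nM for 1 h at 25 °C on a custom Agilent array, double-stranded and BSA-blocked, in PBS with 2% BSA, salmon testes DNA and 50 µM zinc acetate. The binding signal is per-feature fluorescence intensity (arbitrary units) read on an Axon 4000B scanner after washing.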
Turning to “ACTTTATCTTTTCGACCAATCACAATCCTCCTTCAATTATCGGAGTCACCTAGTGCAG”, the binding signal was 8090 fluorescence intensity (a.u.).
Then “CTTTCTTGATTCCTGGAGCTCGCATTTCTTCCTGTGTTAACGGAGTCACCTAGTGCAG”, with 8370 fluorescence intensity (a.u.); and “CACTTCCATCCTTTCTTGTACAGTTGTACTGTTGTTACCTCGGAGTCACCTAGTGCAG”, with 8760 fluorescence intensity (a.u.); and “AGGCCATATCGAAACTGCAGTATTTGCACCCTAGTCTCTACGGAGTCACCTAGTGCAG”, with 9610 fluorescence intensity (a.u.).
Turning to “TCCTTTCTTTTTATTTTTTTTTGTCCGGTAGAATGATAAACGGAGTCACCTAGTGCAG”, the binding signal is 8070 fluorescence intensity (a.u.).
The figure for “AAATGACGGTTGACTTATTTCCTTTCTAGTTTGAGTAATTCGGAGTCACCTAGTGCAG” is 9320 fluorescence intensity (a.u.); for “CTGTTGACTTTTTCTTATATGTTTGACCATTCGTCTTATTCGGAGTCACCTAGTGCAG” it is 24600 fluorescence intensity (a.u.).
With “AATCTCCGGACTTTTGGTCTACTTCTGTGTTTTTCCTCTACGGAGTCACCTAGTGCAG”, the binding signal is 12000 fluorescence intensity (a.u.).
In the case of “ATCCACCGTCGTGTCGCCCACTGTCCAACTGCCAGTCAGCCGGAGTCACCTAGTGCAG”, the binding signal was 8920 fluorescence intensity (a.u.).
The figure for “TTGTGCGTGAGTATAGTACTATATATATGTTTTTTTCACACGGAGTCACCTAGTGCAG” is 8450 fluorescence intensity (a.u.); for “CTGCAGCTCACACCCAAACGCCTCACGCCCCGCCGCCATGCGGAGTCACCTAGTGCAG” it is 8280 fluorescence intensity (a.u.).
Then “ACCACATTTATCTTGTTTCACCATATTTCCCAGCCACACCCGGAGTCACCTAGTGCAG”, with 15400 fluorescence intensity (a.u.); and “TCATCTTGGTCTAAAGTCTGGTTTAATCGTGGTCTTGTCTCGGAGTCACCTAGTGCAG”, with 10100 fluorescence intensity (a.u.); and “GTATCAGGTTTTTTTTTCCCATATTCCTCCCGCGAGCCTCCGGAGTCACCTAGTGCAG”, with 8300 fluorescence intensity (a.u.).
The figure for “CTCCTAGTCCATTCCTTAACGCGCTCAACATTTCTTCGCTCGGAGTCACCTAGTGCAG” is 8080 fluorescence intensity (a.u.); for “TTCCCAAATTCTAGGGTTCGCCTCTTGCACCGCCACGCATCGGAGTCACCTAGTGCAG” it is 8790 fluorescence intensity (a.u.); for “TAGGACATGTGGGGTTATTGTTTTTTCTTTTCACTGACATCGGAGTCACCTAGTGCAG” it is 8810 fluorescence intensity (a.u.).
Turning to “AAACTCTAATCGTACCTGAAACTTTGTGTATTTTAGTCTTCGGAGTCACCTAGTGCAG”, the binding signal was 11600 fluorescence intensity (a.u.).
The figure for “ATTTCTTCCTTATGCATATCTCGTAGTCGACTAGCATTTTCGGAGTCACCTAGTGCAG” is 8340 fluorescence intensity (a.u.); for “TCAACACCCAGGGCGACGACTTCGACTACCCGGACTTCCCCGGAGTCACCTAGTGCAG” it is 9570 fluorescence intensity (a.u.); for “TTTTCTCGCTCTCTTCTCCGCCAGTCTGAGTCGCCATTCTCGGAGTCACCTAGTGCAG” it is 8380 fluorescence intensity (a.u.).
Take “TACCAATTTTACTGCTTATCATTTCTAGTGTTCTTTAAGTCGGAGTCACCTAGTGCAG”: the binding signal is 9330 fluorescence intensity (a.u.).
The figure for “TGCCAGCCAAGCATCCAACCTTCTCATTCTTCTTTTCTTTCGGAGTCACCTAGTGCAG” is 9770 fluorescence intensity (a.u.).
Then “CGCCTCGGCCCTTTTCGCTTTTTTCCATTGCATGCACATACGGAGTCACCTAGTGCAG”, with 9210 fluorescence intensity (a.u.); and “ACTTCGCTTCTCGGTTGGCAGCAGCGATTTCATCCAAGCACGGAGTCACCTAGTGCAG”, with 8040 fluorescence intensity (a.u.).
The figure for “CCTCGTGTACCGTGCGCACGCTTTTTAAACTGTTAAACACCGGAGTCACCTAGTGCAG” is 12000 fluorescence intensity (a.u.).
“CAGTTCTTCGTTCTTGTCTTTACTCTCATGATTTTCTCTTCGGAGTCACCTAGTGCAG”: the binding signal is 10900 fluorescence intensity (a.u.).
Then “AGCTCCATCACATCCTTTTTTTTTCACCTATACTATATAACGGAGTCACCTAGTGCAG”, with 8920 fluorescence intensity (a.u.); and “CGCGCCGCCTCTCCTTGTTGTCTCGTCGCGCGCCGGCGCCCGGAGTCACCTAGTGCAG”, with 11800 fluorescence intensity (a.u.); and “GTCAACTTGCCGTCAACTGTTCGTCTGTTGCCACCCATTTCGGAGTCACCTAGTGCAG”, with 9410 fluorescence intensity (a.u.).
Then “ATCTACTGTATATATATCCTCTATCTTTAATTATTATTATCGGAGTCACCTAGTGCAG”, with 10300 fluorescence intensity (a.u.); and “TTCTTATTTTTAGGGTCATGTATAGTCGCTGTCATCTTACCGGAGTCACCTAGTGCAG”, with 11800 fluorescence intensity (a.u.).
The figure for “TCATTCATATTATTTATTATTTAGTTGTTTGACTTTTTTTCGGAGTCACCTAGTGCAG” is 9600 fluorescence intensity (a.u.).
“CAAACATGTGCTAAAAAGTCAACGGTGTCAAATATTTTGACGGAGTCACCTAGTGCAG”: the binding signal is 8100 fluorescence intensity (a.u.).
Turning to “ACAACCGAAGTTCCCTCAATTCTTTTTTCTTGACTTGATTCGGAGTCACCTAGTGCAG”, the binding signal is 8640 fluorescence intensity (a.u.).
The figure for “ATGGCAATTACACACCGCCCCATCAGCCCCGTACTCGCTCCGGAGTCACCTAGTGCAG” is 8030 fluorescence intensity (a.u.).
The figure for “ATCTGCCATTTTCTGCTCCTTAAATTCTTTAGCCATGGTACGGAGTCACCTAGTGCAG” is 8720 fluorescence intensity (a.u.); for “TCGGTGGTGTGGGGAGGTCCGTGGAGATGGCGGCGTGGGGCGGAGTCACCTAGTGCAG” it is 16100 fluorescence intensity (a.u.); for “AACCACTACTTTGTTTCTTGGACTTCTTAGGTTACTTTGTCGGAGTCACCTAGTGCAG” it is 11400 fluorescence intensity (a.u.).
The figure for “ATACTTCATCCGTTTCTAAATATTTGATGCCGTTGACTTTCGGAGTCACCTAGTGCAG” is 17600 fluorescence intensity (a.u.); for “ACTGCGTGTACGGTGTAACGGGTCATTTTTTTCTTTGCTGCGGAGTCACCTAGTGCAG” it is 8890 fluorescence intensity (a.u.); for “GTCCAATGTTTGACGTTTATCCATCTTTCTTTTTTGGGACCGGAGTCACCTAGTGCAG” it is 8120 fluorescence intensity (a.u.).

Source of the values: PMC7819943, “Rice protein-binding microarrays: a tool to detect cis-acting elements near promoter regions in rice”.
